Measurements reported in PMC5404917.
Substitutions are numbered along the chain they refer to. No constants are given. Whether binding was seen depends on the method and setting. Binding seen in cells or lysates may run through a third protein. Some entries that bind do so weakly or less than the wild type. For part of these data: Sequences can lack the tags named with a protein.

Amino acid sequences for entries named in this document (tags omitted).
UniProt P31749: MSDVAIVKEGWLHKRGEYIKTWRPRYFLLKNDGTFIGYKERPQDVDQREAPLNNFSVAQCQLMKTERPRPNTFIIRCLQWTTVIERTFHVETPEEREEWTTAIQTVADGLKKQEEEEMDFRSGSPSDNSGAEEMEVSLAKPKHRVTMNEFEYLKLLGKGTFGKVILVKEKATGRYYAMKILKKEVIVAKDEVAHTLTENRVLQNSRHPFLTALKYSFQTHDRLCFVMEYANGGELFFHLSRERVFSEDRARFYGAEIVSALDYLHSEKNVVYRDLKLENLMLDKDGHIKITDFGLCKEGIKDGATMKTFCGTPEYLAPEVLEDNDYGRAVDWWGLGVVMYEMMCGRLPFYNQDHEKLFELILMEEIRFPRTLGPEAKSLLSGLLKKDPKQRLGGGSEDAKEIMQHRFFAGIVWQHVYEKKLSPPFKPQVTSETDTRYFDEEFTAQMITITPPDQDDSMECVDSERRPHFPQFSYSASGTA

Experiments:
[1] = molecular target: T1, SCP1, wild type, overexpressed (tag not stated for these experiments) (UniProt Q9GZU7); assay: co-IP; SCP1 or DN-SCP1 expressed with WT AKT1 or Myr-AKT in cells (Figure 5I); lysis in RIPA buffer, protein A and G beads, 4°C
T1 sequence (chain, palmitoylated in HEK293T cells (ABE assay); Cys44 and Cys45 the major sites): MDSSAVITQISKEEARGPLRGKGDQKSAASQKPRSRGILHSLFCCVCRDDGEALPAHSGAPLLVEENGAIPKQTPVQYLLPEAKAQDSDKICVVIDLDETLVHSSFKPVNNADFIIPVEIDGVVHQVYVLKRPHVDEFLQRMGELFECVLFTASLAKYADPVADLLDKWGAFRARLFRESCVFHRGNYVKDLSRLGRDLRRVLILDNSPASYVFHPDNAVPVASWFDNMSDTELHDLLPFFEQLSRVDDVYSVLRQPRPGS

[2] = molecular target: T2, DN-SCP1 (catalytically inactive SCP1, Asp96 to Glu), overexpressed (UniProt Q9GZU7); assay: as above
T2 sequence: T1 sequence (chain, palmitoylated in HEK293T cells (ABE assay); Cys44 and Cys45 the major sites) with D96E

GST-WT-SCP1 = molecular target: T3, GST-WT-SCP1 (UniProt Q9GZU7); assay: pull-down; purified GST-WT-SCP1 incubated with cell lysates overexpressing AKT; western blotting; only the target purified
T3 sequence: T1 sequence (chain, palmitoylated in HEK293T cells (ABE assay); Cys44 and Cys45 the major sites)

- binding [1]: binds
- binding [2]: binds
- binding (GST-WT-SCP1): binds
Substance: AKT1, wild type, overexpressed (from UniProt P31749 1-480) (enzyme)
